Some of the results follow. Small differences around the control level are noise.
Compound: CN[C@@H]1C[C@H]2O[C@@](C)([C@@H]1OC)n1c3ccccc3c3c4c(c5c6ccccc6n2c5c31)C(=O)NC4 [staurosporine]
Assay: log2 fold change of tryptic peptide abundance, ligand vs vehicle (limited proteolysis) (log2 ratio); higher = more trypsin-susceptible (destabilized)
Settings: ligand concentration: 20 uM; sample: mouse liver crude lysate; replicate design: treated separately

The chains behind the UniProt entries cited, without tags or fusion partners. Where a name states a change or a piece, a line headed by the entry shows the natural chain unless it says otherwise.
UniProt O54714: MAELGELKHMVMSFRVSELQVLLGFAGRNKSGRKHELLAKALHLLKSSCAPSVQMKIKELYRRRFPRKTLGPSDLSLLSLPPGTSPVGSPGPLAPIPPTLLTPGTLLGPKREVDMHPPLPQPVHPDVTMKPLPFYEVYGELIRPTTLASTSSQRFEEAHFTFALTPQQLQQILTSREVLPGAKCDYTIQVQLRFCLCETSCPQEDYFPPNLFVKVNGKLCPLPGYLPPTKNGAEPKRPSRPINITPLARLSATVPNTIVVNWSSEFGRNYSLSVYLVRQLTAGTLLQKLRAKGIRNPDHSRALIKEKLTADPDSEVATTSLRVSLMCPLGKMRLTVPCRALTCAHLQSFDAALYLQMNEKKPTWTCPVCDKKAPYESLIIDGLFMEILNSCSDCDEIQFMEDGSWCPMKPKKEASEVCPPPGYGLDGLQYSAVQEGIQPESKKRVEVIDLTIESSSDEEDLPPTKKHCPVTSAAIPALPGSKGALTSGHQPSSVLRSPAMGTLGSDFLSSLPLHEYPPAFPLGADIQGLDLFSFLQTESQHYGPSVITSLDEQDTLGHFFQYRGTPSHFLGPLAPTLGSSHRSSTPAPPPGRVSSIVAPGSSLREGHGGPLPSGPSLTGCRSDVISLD
UniProt O70251: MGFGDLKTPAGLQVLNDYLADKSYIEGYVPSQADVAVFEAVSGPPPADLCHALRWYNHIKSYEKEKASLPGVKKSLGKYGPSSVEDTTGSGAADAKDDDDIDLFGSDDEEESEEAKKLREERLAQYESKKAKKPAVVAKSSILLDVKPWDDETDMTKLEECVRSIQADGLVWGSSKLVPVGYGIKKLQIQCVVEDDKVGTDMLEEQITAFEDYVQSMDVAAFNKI
UniProt O88533: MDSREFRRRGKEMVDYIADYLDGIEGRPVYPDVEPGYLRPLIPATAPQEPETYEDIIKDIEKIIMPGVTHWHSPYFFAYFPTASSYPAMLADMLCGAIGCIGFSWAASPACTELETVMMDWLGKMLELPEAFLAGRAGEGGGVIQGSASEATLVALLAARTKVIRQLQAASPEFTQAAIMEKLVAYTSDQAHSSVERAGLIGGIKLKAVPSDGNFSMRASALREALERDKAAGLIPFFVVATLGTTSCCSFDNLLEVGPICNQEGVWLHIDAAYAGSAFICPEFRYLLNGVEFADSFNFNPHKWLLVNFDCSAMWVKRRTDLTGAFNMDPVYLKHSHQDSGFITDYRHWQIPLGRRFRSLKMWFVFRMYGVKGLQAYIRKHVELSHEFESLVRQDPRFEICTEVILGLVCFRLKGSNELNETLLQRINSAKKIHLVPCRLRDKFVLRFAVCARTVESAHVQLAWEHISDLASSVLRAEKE
UniProt O35621: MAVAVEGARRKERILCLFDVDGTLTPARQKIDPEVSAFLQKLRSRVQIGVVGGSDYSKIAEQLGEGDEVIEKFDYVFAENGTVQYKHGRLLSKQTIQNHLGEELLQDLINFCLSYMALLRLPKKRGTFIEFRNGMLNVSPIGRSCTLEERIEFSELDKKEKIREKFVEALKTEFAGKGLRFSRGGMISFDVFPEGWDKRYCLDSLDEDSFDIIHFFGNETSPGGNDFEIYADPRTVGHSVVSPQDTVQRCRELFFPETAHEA
UniProt O35626: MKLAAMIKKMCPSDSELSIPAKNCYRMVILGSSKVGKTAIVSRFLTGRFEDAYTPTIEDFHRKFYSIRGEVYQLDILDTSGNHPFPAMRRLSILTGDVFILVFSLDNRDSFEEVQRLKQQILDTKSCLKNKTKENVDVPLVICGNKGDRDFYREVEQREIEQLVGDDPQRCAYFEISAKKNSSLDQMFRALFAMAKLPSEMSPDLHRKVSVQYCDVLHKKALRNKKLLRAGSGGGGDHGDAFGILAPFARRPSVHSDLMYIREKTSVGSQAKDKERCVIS
UniProt O88512: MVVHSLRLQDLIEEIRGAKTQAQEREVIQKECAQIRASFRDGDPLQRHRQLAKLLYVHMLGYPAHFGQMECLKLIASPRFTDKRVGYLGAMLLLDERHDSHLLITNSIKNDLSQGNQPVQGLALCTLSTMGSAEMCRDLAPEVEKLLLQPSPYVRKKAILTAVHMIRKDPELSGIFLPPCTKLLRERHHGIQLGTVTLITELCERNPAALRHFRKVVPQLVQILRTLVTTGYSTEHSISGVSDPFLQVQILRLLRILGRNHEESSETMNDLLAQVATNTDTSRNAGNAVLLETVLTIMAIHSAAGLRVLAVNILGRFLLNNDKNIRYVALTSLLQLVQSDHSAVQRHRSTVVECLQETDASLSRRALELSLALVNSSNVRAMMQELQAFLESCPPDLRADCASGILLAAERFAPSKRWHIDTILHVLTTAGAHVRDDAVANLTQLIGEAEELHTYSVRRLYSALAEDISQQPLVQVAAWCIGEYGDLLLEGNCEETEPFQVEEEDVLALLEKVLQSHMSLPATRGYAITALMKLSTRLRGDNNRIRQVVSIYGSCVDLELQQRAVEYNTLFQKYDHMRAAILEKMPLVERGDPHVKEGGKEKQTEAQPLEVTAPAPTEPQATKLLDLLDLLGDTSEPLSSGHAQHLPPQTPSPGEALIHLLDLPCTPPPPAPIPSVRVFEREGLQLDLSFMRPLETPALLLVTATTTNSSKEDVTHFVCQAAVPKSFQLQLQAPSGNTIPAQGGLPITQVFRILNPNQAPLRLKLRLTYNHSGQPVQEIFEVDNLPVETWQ
UniProt O70310: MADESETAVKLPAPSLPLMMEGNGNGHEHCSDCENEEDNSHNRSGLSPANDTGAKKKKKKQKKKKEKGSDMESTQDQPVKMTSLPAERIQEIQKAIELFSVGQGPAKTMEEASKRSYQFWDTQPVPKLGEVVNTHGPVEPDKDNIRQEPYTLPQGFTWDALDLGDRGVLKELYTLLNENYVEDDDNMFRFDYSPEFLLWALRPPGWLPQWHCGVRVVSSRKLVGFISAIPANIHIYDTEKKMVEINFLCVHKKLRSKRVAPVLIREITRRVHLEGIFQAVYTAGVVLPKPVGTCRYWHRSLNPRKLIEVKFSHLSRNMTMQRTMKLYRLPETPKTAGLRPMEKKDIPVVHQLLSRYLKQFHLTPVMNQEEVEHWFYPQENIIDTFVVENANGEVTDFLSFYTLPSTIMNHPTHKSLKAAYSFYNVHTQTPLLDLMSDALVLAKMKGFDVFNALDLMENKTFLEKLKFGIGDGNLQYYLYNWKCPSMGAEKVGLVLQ
UniProt O35864, whole entry: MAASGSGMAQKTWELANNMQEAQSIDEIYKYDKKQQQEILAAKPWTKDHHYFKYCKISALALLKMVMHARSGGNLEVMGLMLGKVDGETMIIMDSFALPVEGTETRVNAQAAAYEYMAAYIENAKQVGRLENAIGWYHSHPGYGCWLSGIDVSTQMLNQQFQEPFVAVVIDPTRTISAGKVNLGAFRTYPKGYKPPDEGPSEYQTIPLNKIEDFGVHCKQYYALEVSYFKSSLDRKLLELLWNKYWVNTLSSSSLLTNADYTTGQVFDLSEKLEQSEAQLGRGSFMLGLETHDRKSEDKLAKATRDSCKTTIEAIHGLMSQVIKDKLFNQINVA
UniProt O54951: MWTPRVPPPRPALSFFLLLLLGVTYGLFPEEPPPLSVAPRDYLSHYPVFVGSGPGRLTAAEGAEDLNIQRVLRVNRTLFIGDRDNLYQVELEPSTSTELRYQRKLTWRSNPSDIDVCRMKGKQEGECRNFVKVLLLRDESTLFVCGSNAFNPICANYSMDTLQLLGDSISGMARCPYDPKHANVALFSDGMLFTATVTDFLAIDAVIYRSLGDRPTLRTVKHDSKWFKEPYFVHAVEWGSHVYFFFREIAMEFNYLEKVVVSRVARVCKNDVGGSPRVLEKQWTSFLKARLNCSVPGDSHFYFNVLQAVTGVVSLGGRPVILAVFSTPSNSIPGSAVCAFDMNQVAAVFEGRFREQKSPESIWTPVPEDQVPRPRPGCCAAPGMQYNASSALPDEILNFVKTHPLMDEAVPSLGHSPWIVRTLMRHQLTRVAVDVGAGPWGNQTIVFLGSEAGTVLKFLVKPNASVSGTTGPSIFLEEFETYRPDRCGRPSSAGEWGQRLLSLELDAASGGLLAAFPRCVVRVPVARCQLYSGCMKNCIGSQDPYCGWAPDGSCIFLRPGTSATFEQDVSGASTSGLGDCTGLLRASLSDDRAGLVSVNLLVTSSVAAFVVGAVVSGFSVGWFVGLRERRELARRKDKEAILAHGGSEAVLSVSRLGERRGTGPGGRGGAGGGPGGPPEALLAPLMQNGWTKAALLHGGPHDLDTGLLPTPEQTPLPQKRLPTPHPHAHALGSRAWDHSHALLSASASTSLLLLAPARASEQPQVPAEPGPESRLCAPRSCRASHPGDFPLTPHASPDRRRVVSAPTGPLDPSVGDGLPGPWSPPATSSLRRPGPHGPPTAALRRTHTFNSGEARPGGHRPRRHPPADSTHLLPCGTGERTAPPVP
UniProt O88271, whole entry: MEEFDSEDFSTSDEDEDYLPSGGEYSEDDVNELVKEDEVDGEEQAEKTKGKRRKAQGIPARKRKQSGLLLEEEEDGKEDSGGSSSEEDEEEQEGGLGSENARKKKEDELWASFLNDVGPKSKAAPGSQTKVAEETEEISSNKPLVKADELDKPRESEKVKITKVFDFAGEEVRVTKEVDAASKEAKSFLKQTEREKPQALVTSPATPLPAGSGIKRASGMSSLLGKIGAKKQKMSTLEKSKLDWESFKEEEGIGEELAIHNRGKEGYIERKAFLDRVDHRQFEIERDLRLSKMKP
UniProt O35744: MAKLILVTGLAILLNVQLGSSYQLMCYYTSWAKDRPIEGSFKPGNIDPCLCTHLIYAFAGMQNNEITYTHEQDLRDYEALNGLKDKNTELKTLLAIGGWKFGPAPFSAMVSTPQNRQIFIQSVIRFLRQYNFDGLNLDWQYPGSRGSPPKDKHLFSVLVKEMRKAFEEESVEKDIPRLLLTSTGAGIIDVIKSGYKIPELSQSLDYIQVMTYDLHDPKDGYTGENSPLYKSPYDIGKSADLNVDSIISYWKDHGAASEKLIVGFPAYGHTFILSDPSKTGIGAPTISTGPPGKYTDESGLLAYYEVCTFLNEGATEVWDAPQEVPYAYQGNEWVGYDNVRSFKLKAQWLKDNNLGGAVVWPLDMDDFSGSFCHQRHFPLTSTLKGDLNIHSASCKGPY
UniProt O88522, whole entry: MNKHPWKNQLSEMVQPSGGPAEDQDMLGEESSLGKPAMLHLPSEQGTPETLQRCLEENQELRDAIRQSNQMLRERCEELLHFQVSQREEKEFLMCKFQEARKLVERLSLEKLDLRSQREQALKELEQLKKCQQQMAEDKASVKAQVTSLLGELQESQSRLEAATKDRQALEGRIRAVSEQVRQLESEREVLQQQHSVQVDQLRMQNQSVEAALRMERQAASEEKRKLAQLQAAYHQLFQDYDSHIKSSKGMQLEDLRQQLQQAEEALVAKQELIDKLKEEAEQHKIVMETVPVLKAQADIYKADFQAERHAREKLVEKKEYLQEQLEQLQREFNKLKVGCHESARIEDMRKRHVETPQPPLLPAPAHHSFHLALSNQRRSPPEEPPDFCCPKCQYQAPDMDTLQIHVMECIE
UniProt O54998: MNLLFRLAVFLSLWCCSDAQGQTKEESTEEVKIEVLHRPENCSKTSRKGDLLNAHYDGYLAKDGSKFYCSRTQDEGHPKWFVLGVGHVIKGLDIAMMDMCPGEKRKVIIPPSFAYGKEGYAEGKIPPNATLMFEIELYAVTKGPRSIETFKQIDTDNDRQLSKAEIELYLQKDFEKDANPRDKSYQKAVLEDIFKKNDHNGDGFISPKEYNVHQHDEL
UniProt O88822: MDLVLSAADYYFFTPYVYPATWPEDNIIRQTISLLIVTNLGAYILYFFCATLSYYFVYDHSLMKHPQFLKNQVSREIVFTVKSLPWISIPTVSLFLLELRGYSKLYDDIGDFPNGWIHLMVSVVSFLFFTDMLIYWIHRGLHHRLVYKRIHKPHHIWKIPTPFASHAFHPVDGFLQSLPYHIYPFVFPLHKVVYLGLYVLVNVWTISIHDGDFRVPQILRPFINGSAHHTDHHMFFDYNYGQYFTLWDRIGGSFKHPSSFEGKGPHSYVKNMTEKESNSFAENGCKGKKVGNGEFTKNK
UniProt O35841: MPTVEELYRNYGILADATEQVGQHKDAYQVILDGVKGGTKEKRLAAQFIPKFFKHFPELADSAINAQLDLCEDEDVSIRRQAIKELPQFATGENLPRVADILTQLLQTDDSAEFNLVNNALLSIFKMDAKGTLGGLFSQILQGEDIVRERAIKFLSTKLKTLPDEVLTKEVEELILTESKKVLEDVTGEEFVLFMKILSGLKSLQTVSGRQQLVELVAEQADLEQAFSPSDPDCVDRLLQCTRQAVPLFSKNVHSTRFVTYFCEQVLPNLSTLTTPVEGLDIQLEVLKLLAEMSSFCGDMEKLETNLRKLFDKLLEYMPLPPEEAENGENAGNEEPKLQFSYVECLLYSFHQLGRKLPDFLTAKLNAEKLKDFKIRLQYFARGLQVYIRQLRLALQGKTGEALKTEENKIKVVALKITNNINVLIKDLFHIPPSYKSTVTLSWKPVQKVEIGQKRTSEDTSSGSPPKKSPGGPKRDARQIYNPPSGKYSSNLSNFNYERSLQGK

| Target | log2 fold change |
| --- | --- |
| UniProt O88327 (peptide sequence: QAGETIASLTDVTKR, peptide start residue: 108) | -0.139 |
| UniProt O88712 (peptide sequence: VQSVEQIR, peptide start residue: 156) | 0.0631 |
| UniProt O70325 (peptide sequence: RYGPMEEPQVIEK, peptide start residue: 179) | 0.372 |
| UniProt O55203 (peptide sequence: DCLKTCLFQK, peptide start residue: 268) | 0.305 |
| UniProt O54714 (peptide sequence: VSLMCPLGK, peptide start residue: 342) | 0.219 |
| UniProt O70251 (peptide sequence: LVPVGYGIKK, peptide start residue: 177) | 0.203 |
| UniProt O88844 (peptide sequence: DIFQEIYDKK, peptide start residue: 225) | 0.162 |
| UniProt O70279 (peptide sequence: HAWLYQAEEEFEKR, peptide start residue: 181) | -0.326 |
| UniProt O70362 (peptide sequence: LYSTYSTK, peptide start residue: 224) | -0.217 |
| UniProt O88533 (peptide sequence: HSHQDSGFITDYR, peptide start residue: 335) | 0.0189 |
| UniProt O35621 (peptide sequence: KRGTFIEFR, peptide start residue: 111) | 0.115 |
| UniProt O35626 (peptide sequence: LKQQILDTK, peptide start residue: 117) | 0.194 |
| UniProt O70404 (peptide sequence: NIMTQNVER, peptide start residue: 25) | -0.0613 |
| UniProt O35904 (peptide sequence: DEQSNPAPQVQKPR, peptide start residue: 287) | 0.00528 |
| UniProt O54818 (peptide sequence: SWHDMQTTTAYKK, peptide start residue: 86) | 0.318 |
| UniProt O88512 (peptide sequence: LQDLIEEIR, peptide start residue: 8) | -0.0445 |
| UniProt O70310 (peptide sequence: LGEVVNTHGPVEPDKDNIR, peptide start residue: 128) | 0.379 |
| UniProt O54984 (peptide sequence: LLNFPTIVER, peptide start residue: 176) | 0.103 |
| UniProt O35864 (peptide sequence: GSFMLGLETHDRK, peptide start residue: 283) | -0.142 |
| UniProt O88559 (peptide sequence: GQTVNAGVAER, peptide start residue: 208) | -0.259 |

Another view of some results above:
Target,log2 fold change
"UniProt O70310 (peptide sequence: LGEVVNTHGPVEPDKDNIR, peptide start residue: 128)",0.379
"UniProt O54984 (peptide sequence: LLNFPTIVER, peptide start residue: 176)",0.103
"UniProt O35864 (peptide sequence: GSFMLGLETHDRK, peptide start residue: 283)",-0.142

Next records:

| Target | log2 fold change |
| --- | --- |
| UniProt O35929 (peptide sequence: THQANHVPIILVGNK, peptide start residue: 181) | 0.5 |
| UniProt O54951 (peptide sequence: RPGPHGPPTAALR, peptide start residue: 832) | 0.181 |
| UniProt O35657 (peptide sequence: LIVCGHGTLER, peptide start residue: 209) | 0.372 |
| UniProt O88491 (peptide sequence: LLNNMHEK, peptide start residue: 734) | -0.742 |
| UniProt O88271 (peptide sequence: EKPQALVTSPATPLPAGSGIKR, peptide start residue: 195) | -0.517 |
| UniProt O35744 (peptide sequence: TLLAIGGWK, peptide start residue: 92) | 0.209 |
| UniProt O88522 (peptide sequence: ERCEELLHFQVSQREEK, peptide start residue: 74) | 0.548 |
| UniProt O70131 (peptide sequence: NRPINVNHYANKK, peptide start residue: 33) | -0.278 |
| UniProt O54998 (peptide sequence: DFEKDANPR, peptide start residue: 173) | -0.349 |
| UniProt O88822 (peptide sequence: IGGSFKHPSSFEGK, peptide start residue: 250) | 0.247 |
| UniProt O35691 (peptide sequence: TKPHLFYIPGR, peptide start residue: 236) | 0.187 |
| UniProt O70493 (peptide sequence: IAGHPLAQNER, peptide start residue: 129) | -0.217 |
| UniProt O70133 (peptide sequence: LAAQSCALSLVR, peptide start residue: 239) | -0.538 |
| UniProt O35643 (peptide sequence: NINLIVQK, peptide start residue: 305) | -0.452 |
| UniProt O35841 (peptide sequence: KLPDFLTAK, peptide start residue: 356) | 0.661 |
| UniProt O35671 (peptide sequence: SVDSSLGGLSR, peptide start residue: 25) | -0.38 |
| UniProt O88448 (peptide sequence: TLGKDHPAVAATLNNLAVLYGK, peptide start residue: 272) | 0.252 |
| UniProt O55042 (peptide sequence: EGVVHGVTTVAEK, peptide start residue: 46) | 0.144 |
| UniProt O70591 (peptide sequence: HNIRLMGEDEK, peptide start residue: 122) | 0.257 |
